According to the supplement of paper PMC6411743:
± gives the standard deviation of the averaged measurements. Only a part is listed here, and it is no random draw.

Amino acid sequences for entries named in this document (tags omitted). A change or cut given only in a name is not applied to a line headed by its entry.
UniProt O75533, whole entry: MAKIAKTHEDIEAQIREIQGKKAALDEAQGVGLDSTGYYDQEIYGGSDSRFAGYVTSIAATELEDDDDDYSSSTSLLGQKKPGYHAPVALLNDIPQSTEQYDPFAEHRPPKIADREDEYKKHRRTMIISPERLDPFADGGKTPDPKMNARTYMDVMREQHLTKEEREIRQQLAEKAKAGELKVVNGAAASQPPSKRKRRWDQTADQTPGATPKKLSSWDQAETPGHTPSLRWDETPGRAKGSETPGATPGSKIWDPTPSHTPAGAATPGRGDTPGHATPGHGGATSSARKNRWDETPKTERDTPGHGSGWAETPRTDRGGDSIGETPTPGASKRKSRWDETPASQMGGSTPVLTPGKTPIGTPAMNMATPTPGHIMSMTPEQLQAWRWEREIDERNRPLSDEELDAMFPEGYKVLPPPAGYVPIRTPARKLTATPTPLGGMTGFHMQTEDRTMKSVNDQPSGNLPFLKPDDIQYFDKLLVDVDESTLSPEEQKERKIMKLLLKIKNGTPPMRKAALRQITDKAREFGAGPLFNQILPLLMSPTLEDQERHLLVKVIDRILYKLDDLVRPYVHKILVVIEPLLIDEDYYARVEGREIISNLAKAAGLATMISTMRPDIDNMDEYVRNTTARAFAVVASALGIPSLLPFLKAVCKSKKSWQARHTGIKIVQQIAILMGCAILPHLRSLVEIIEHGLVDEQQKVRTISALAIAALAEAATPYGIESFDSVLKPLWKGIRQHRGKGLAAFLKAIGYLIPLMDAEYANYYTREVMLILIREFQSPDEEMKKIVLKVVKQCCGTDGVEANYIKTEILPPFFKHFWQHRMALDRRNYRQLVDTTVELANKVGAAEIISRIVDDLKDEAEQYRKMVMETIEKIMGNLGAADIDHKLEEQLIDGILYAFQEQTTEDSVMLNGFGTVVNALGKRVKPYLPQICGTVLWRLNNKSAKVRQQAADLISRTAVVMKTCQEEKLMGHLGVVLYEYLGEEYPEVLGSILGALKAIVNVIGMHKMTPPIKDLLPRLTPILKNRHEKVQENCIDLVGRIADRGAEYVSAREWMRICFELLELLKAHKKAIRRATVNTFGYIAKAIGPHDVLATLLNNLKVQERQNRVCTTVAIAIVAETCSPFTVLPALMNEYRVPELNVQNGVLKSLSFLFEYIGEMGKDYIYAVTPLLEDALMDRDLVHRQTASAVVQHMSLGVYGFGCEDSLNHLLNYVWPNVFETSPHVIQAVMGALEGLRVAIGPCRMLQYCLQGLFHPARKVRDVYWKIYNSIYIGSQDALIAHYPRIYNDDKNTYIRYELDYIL
UniProt O75116: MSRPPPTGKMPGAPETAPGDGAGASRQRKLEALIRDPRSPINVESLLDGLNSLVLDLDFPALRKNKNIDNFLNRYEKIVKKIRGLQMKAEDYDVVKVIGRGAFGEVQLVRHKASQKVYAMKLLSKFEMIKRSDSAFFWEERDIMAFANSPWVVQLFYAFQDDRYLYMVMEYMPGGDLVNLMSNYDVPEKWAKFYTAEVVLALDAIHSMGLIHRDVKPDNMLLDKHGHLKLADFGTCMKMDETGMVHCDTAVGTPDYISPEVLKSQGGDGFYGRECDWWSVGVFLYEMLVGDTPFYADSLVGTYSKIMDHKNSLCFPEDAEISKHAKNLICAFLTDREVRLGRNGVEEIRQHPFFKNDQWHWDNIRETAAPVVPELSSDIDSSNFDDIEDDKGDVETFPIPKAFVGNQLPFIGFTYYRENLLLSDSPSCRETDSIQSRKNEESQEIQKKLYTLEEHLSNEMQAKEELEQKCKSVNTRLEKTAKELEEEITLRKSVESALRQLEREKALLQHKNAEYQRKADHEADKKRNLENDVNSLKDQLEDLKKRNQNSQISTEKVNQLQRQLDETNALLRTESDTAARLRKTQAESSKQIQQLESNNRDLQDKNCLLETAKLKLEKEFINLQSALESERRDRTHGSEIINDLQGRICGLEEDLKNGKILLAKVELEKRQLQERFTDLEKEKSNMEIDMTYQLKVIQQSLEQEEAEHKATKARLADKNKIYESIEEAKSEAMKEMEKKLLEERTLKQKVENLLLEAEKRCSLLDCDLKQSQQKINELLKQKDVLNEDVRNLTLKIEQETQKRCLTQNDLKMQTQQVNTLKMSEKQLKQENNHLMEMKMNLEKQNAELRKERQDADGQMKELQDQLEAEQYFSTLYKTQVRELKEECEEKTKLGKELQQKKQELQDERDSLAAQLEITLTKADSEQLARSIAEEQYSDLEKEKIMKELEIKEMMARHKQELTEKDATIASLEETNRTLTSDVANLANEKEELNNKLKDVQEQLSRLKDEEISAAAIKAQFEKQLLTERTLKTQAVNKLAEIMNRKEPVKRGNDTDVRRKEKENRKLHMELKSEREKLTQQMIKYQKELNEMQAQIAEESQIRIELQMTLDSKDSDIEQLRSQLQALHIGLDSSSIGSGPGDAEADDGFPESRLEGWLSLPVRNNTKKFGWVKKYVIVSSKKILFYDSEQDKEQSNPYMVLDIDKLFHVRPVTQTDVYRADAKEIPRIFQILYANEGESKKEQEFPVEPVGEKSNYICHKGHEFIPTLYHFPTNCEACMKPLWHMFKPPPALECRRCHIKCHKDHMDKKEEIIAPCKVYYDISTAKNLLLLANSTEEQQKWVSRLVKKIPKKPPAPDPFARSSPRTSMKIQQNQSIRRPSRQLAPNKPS
UniProt O95182, whole entry: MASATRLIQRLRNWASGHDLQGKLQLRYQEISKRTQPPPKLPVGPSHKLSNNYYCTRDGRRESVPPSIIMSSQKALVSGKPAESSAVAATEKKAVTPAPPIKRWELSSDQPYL
UniProt O94776: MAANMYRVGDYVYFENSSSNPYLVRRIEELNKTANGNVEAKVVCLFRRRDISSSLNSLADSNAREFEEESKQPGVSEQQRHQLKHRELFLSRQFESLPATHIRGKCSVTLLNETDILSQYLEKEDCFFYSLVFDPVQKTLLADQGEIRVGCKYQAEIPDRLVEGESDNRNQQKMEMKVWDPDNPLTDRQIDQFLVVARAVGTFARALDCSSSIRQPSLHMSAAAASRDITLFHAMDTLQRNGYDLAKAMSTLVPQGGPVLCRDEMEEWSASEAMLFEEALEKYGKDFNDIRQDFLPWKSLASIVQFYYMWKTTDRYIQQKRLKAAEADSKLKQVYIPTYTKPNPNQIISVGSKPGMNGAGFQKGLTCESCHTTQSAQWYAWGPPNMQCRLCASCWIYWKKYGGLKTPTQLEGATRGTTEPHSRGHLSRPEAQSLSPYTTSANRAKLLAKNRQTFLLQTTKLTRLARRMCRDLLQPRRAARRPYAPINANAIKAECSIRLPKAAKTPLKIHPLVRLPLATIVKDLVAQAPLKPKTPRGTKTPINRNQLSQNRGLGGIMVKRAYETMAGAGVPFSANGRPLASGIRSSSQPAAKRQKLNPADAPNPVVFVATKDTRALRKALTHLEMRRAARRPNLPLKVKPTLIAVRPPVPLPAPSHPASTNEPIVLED
UniProt O95571: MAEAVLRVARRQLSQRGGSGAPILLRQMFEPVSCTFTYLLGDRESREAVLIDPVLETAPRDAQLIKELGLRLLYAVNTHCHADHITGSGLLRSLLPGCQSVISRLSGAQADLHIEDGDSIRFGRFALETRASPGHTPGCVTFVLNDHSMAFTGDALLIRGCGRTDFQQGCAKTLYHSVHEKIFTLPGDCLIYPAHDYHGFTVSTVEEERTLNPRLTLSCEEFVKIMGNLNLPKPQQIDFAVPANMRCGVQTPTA
UniProt O95071: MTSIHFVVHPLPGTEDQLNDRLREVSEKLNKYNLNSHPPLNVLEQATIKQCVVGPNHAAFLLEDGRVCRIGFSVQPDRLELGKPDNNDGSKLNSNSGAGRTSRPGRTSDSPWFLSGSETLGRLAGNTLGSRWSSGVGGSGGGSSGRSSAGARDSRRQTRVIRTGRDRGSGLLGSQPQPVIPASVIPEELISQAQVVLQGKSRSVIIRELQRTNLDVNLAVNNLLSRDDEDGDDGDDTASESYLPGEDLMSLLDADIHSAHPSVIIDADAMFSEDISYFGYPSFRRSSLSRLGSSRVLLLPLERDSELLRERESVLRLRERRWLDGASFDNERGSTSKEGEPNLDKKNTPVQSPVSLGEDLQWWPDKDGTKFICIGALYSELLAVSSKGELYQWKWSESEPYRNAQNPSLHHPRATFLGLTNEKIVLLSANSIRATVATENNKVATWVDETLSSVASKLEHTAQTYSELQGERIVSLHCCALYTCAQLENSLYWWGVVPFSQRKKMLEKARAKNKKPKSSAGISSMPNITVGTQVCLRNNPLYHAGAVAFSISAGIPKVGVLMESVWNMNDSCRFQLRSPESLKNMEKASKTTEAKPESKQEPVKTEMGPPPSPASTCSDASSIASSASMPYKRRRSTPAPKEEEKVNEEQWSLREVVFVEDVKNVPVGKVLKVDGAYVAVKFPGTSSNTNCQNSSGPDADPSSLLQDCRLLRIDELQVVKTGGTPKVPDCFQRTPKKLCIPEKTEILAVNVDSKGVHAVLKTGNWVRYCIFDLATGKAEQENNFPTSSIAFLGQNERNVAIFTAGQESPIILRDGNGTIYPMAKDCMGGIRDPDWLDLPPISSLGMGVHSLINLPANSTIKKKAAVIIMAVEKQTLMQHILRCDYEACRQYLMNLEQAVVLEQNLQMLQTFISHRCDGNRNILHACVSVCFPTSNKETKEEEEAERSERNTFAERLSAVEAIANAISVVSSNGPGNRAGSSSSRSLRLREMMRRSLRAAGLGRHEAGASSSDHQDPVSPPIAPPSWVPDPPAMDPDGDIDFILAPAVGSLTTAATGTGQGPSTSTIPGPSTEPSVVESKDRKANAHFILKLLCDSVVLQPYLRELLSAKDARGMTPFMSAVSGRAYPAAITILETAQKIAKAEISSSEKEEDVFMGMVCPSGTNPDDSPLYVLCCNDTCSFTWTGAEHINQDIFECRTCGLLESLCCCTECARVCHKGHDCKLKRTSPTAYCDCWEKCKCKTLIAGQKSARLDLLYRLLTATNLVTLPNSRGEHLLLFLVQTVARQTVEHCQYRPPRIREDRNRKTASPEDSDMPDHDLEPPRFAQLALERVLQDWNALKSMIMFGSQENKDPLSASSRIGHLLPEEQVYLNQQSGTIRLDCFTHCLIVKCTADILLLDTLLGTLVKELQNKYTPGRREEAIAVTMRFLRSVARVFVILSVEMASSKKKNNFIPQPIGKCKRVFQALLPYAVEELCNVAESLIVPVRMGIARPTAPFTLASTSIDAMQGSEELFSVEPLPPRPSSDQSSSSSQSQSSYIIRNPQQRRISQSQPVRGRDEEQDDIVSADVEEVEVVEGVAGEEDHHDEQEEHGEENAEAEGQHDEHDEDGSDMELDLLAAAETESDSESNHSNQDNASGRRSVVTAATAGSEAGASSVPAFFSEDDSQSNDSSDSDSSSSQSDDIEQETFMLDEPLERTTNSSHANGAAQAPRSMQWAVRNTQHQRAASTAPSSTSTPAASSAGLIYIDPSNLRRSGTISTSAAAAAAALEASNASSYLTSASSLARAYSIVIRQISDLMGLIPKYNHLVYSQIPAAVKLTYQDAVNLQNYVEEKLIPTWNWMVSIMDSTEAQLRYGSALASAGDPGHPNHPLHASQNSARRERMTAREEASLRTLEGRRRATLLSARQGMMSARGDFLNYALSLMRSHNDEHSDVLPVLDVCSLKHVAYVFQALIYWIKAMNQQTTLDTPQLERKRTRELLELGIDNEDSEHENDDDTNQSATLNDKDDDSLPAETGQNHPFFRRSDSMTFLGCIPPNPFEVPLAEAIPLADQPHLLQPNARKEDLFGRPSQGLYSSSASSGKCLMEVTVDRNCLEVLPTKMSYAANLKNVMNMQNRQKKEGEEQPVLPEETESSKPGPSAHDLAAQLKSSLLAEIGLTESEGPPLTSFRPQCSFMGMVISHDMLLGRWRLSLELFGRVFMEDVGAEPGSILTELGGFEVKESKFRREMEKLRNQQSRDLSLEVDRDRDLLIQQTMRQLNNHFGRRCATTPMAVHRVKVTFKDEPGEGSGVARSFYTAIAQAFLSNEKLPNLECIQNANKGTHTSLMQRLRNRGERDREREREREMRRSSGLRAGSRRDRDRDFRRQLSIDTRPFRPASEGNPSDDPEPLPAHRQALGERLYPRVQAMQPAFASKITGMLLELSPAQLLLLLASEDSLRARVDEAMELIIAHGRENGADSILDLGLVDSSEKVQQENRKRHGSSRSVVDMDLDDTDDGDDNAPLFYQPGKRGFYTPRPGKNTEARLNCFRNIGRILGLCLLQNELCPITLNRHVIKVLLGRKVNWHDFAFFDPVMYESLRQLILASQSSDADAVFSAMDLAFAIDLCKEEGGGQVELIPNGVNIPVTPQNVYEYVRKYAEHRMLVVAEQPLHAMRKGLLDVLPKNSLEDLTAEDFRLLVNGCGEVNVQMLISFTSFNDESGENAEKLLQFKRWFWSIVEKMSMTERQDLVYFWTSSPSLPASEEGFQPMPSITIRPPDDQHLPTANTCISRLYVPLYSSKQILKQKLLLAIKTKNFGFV

Compound: Nc1ncnc2c1ncn2[C@@H]1O[C@H](COP(=O)(O)OP(=O)(O)NP(=O)(O)O)[C@@H](O)[C@H]1O [adenylyl imidodiphosphate]
Assay: NP40-soluble protein abundance relative to vehicle (solubility fold change) (ratio); higher = more soluble protein in presence of AMP-PNP
Outline: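 Each value is a fold change relative to the detergent-processed vehicle, calculated per replicate from vsn-normalised intensities. Jurkat crude lysate received eight concentrations (0.1 to 10 mM) for 10 min at room temperature and 3 min at 37 °C, then was solubilised in 0.8% NP40 with benzonase (60 min, 4 °C). The ultracentrifuged supernatant was TMT-labelled and run by LC-MS/MS in three independent experiments.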

Target	NP40-soluble protein abundance (concentration: 1mM)	NP40-soluble protein abundance (concentration: 2mM)	NP40-soluble protein abundance (concentration: 4mM)	NP40-soluble protein abundance (concentration: 6mM)	NP40-soluble protein abundance (concentration: 8mM)	NP40-soluble protein abundance (concentration: 10mM)
KATNA1 (UniProt O75449)	1 ± 0.011	1.005 ± 0.0082	1.008 ± 0.009	0.975 ± 0.05	0.985 ± 0.016	0.959 ± 0.038
UniProt O75326 and related entries	1 ± 0.015	0.994 ± 0.042	0.976 ± 0.017	0.989 ± 0.031	1 ± 0.021	0.985 ± 0.025
UniProt O75558	1.01 ± 0.041	1.01 ± 0.013	1.02 ± 0.027	1.002 ± 0.007	0.989 ± 0.035	0.9879 ± 0.0066
UniProt O75582 and related entries	1 ± 0.047	0.966 ± 0.065	1.02 ± 0.057	1 ± 0.025	1.006 ± 0.0043	0.9977 ± 0.005
SF3B1 (UniProt O75533)	0.984 ± 0.017	0.9945 ± 0.0013	1.02 ± 0.018	1.05 ± 0.019	1.07 ± 0.033	1.08 ± 0.077
CD2BP2 (UniProt O95400)	1.02 ± 0.056	1.05 ± 0.065	1.02 ± 0.059	1.02 ± 0.069	0.981 ± 0.073	1.05 ± 0.078
MED26 (UniProt O95402)	1.03 ± 0.012	1.08 ± 0.03	1.03 ± 0.021	1.04 ± 0.04	1.04 ± 0.06	1.06 ± 0.042
ROCK2 (UniProt O75116)	1.04 ± 0.027	1.09 ± 0.022	1.04 ± 0.031	1.02 ± 0.035	0.992 ± 0.017	1.03 ± 0.035
ZC3H11A (UniProt O75152)	0.86 ± 0.11	0.883 ± 0.1	0.853 ± 0.13	0.936 ± 0.094	0.933 ± 0.098	1.03 ± 0.098
TMEM63A (UniProt O94886)	1.03 ± 0.058	1.08 ± 0.046	1.03 ± 0.056	0.987 ± 0.034	0.962 ± 0.049	1.02 ± 0.05
PPP1R11 (UniProt O60927)	1.03 ± 0.049	1.07 ± 0.07	1.05 ± 0.069	1.02 ± 0.034	1.02 ± 0.068	1.03 ± 0.053
RAD21 (UniProt O60216)	1.01 ± 0.036	1.02 ± 0.047	0.998 ± 0.022	1.01 ± 0.022	0.961 ± 0.027	0.993 ± 0.04
UniProt O75093 and related entries	1.01 ± 0.035	1.011 ± 0.0054	1.04 ± 0.048	1.07 ± 0.035	1.08 ± 0.035	1.13 ± 0.059
UniProt O75600 and related entries	0.96 ± 0.018	0.917 ± 0.072	0.9873 ± 0.0089	0.9642 ± 0.0082	0.98 ± 0.028	0.958 ± 0.029
AHSA1 (UniProt O95433)	0.991 ± 0.033	0.927 ± 0.045	0.94 ± 0.032	0.945 ± 0.017	0.946 ± 0.029	0.905 ± 0.014
WBP4 (UniProt O75554)	1.02 ± 0.032	1.08 ± 0.081	1.02 ± 0.013	1.05 ± 0.022	0.99 ± 0.023	1.06 ± 0.012
UniProt O60232	1.03 ± 0.058	1.04 ± 0.033	1.01 ± 0.078	0.993 ± 0.043	1.01 ± 0.067	0.985 ± 0.029
UniProt O94763	1.05 ± 0.048	1.13 ± 0.06	1.05 ± 0.05	1.02 ± 0.1	0.962 ± 0.063	1.02 ± 0.059
VPS26A (UniProt O75436)	0.946 ± 0.045	0.861 ± 0.062	0.895 ± 0.019	0.872 ± 0.032	0.931 ± 0.046	0.829 ± 0.02
SLC16A7 (UniProt O60669)	1.03 ± 0.029	1.05 ± 0.056	0.99 ± 0.07	1.015 ± 0.0051	1 ± 0.046	1.02 ± 0.03

Target	NP40-soluble protein abundance (concentration: 1mM)	NP40-soluble protein abundance (concentration: 2mM)	NP40-soluble protein abundance (concentration: 4mM)	NP40-soluble protein abundance (concentration: 6mM)	NP40-soluble protein abundance (concentration: 8mM)	NP40-soluble protein abundance (concentration: 10mM)
PRMT3 (UniProt O60678)	0.992 ± 0.027	0.976 ± 0.021	1 ± 0.031	0.95 ± 0.034	0.982 ± 0.016	0.9329 ± 0.0088
NPM3 (UniProt O75607)	0.996 ± 0.027	0.997 ± 0.045	1.03 ± 0.021	1.02 ± 0.034	1.02 ± 0.05	1.04 ± 0.028
UniProt O75379 and related entries	1.01 ± 0.042	1.05 ± 0.076	1.01 ± 0.026	0.988 ± 0.021	0.995 ± 0.035	1 ± 0.016
SH3BGRL (UniProt O75368)	0.939 ± 0.027	0.966 ± 0.028	0.888 ± 0.013	0.937 ± 0.031	0.907 ± 0.015	0.897 ± 0.033
UniProt O94964 and related entries	0.981 ± 0.044	0.977 ± 0.027	0.971 ± 0.039	0.953 ± 0.03	0.915 ± 0.021	0.934 ± 0.041
KPNA6 (UniProt O60684)	1.01 ± 0.014	0.984 ± 0.019	1.011 ± 0.0049	0.9915 ± 0.0065	1.01 ± 0.012	0.972 ± 0.021
ZBTB7A (UniProt O95365)	1.01 ± 0.064	1.04 ± 0.079	1.07 ± 0.056	1.01 ± 0.038	1.05 ± 0.066	1.08 ± 0.027
UniProt O76054 and related entries	0.985 ± 0.028	1.01 ± 0.036	1.01 ± 0.02	1.02 ± 0.047	1.02 ± 0.035	1.06 ± 0.059
UniProt O60566 and related entries	1.01 ± 0.015	0.988 ± 0.064	0.986 ± 0.05	0.944 ± 0.022	0.945 ± 0.029	0.922 ± 0.029
UniProt O75312	1.006 ± 0.0071	1.04 ± 0.052	1.01 ± 0.019	0.987 ± 0.026	0.958 ± 0.0055	0.963 ± 0.042
ENDOD1 (UniProt O94919)	1.06 ± 0.039	1.06 ± 0.029	1.05 ± 0.069	1.01 ± 0.025	1 ± 0.041	1.02 ± 0.062
UniProt O60880 and related entries	0.868 ± 0.025	0.926 ± 0.025	0.893 ± 0.054	0.873 ± 0.021	0.843 ± 0.029	0.823 ± 0.04
UniProt O75182 and related entries	0.981 ± 0.023	0.986 ± 0.03	1 ± 0.069	1.03 ± 0.053	1.05 ± 0.068	1.04 ± 0.063
TGDS (UniProt O95455)	0.989 ± 0.016	0.969 ± 0.032	0.973 ± 0.016	0.982 ± 0.034	0.993 ± 0.028	0.988 ± 0.039
CPNE3 (UniProt O75131)	0.965 ± 0.021	0.91 ± 0.064	0.9982 ± 0.0081	1.07 ± 0.13	1.08 ± 0.11	1.03 ± 0.059
NDUFA7 (UniProt O95182)	0.963 ± 0.028	0.982 ± 0.023	0.921 ± 0.046	0.951 ± 0.026	0.901 ± 0.042	0.922 ± 0.043
MTA2 (UniProt O94776)	0.978 ± 0.026	0.953 ± 0.047	0.971 ± 0.05	1.01 ± 0.03	1.02 ± 0.048	1.05 ± 0.097
UniProt O95248-4|G5E933 and related entries	0.985 ± 0.031	0.953 ± 0.067	0.994 ± 0.039	0.96 ± 0.015	0.963 ± 0.04	0.976 ± 0.041
UniProt O95571 and related entries	1.006 ± 0.0088	0.967 ± 0.019	1.019 ± 0.008	0.967 ± 0.017	0.994 ± 0.044	0.968 ± 0.02
AGFG2 (UniProt O95081)	0.987 ± 0.022	1.01 ± 0.025	0.986 ± 0.033	1.04 ± 0.028	0.986 ± 0.027	1 ± 0.02

A different layout for part of the listing above.
Target,NP40-soluble protein abundance (concentration: 1mM),NP40-soluble protein abundance (concentration: 2mM),NP40-soluble protein abundance (concentration: 4mM),NP40-soluble protein abundance (concentration: 6mM),NP40-soluble protein abundance (concentration: 8mM),NP40-soluble protein abundance (concentration: 10mM)
UniProt O76054 and related entries,0.985 ± 0.028,1.01 ± 0.036,1.01 ± 0.02,1.02 ± 0.047,1.02 ± 0.035,1.06 ± 0.059
UniProt O60880 and related entries,0.868 ± 0.025,0.926 ± 0.025,0.893 ± 0.054,0.873 ± 0.021,0.843 ± 0.029,0.823 ± 0.04
UniProt O95248-4|G5E933 and related entries,0.985 ± 0.031,0.953 ± 0.067,0.994 ± 0.039,0.96 ± 0.015,0.963 ± 0.04,0.976 ± 0.041

The list goes on.

Target	NP40-soluble protein abundance (concentration: 1mM)	NP40-soluble protein abundance (concentration: 2mM)	NP40-soluble protein abundance (concentration: 4mM)	NP40-soluble protein abundance (concentration: 6mM)	NP40-soluble protein abundance (concentration: 8mM)	NP40-soluble protein abundance (concentration: 10mM)
UniProt O75145 and related entries	1.01 ± 0.036	1.06 ± 0.05	1.015 ± 0.006	0.994 ± 0.038	0.941 ± 0.025	0.965 ± 0.015
FAM20B (UniProt O75063)	0.973 ± 0.02	0.993 ± 0.022	0.978 ± 0.024	0.99 ± 0.024	0.963 ± 0.016	1 ± 0.042
UniProt O60293 and related entries	1.04 ± 0.05	1.09 ± 0.045	1.1 ± 0.014	1.1 ± 0.068	1.06 ± 0.065	1.14 ± 0.053
UniProt O60341	0.957 ± 0.026	0.924 ± 0.062	0.984 ± 0.052	1.04 ± 0.03	1.04 ± 0.03	1.04 ± 0.049
UniProt O95243-2|O95243-5|O95243	1.009 ± 0.01	1 ± 0.027	1.05 ± 0.037	1.031 ± 0.0075	1.04 ± 0.011	1.068 ± 0.0071
UniProt O95619 and related entries	1.04 ± 0.056	1.14 ± 0.12	1.1 ± 0.11	1.06 ± 0.026	1.04 ± 0.057	1.06 ± 0.021
AQR (UniProt O60306)	0.988 ± 0.022	0.888 ± 0.12	1 ± 0.094	0.922 ± 0.026	0.994 ± 0.095	0.915 ± 0.07
SGPL1 (UniProt O95470)	0.965 ± 0.043	0.92 ± 0.04	0.959 ± 0.026	1.02 ± 0.062	1.053 ± 0.0094	1.04 ± 0.035
UniProt O75530	0.978 ± 0.038	1 ± 0.018	1.05 ± 0.016	1.14 ± 0.097	1.22 ± 0.057	1.22 ± 0.05
UniProt O75534 and related entries	0.986 ± 0.023	0.955 ± 0.047	0.9849 ± 0.0038	1 ± 0.029	0.993 ± 0.034	0.984 ± 0.024
VPS4B (UniProt O75351)	1.022 ± 0.0068	1.02 ± 0.018	0.997 ± 0.034	1.03 ± 0.025	1.01 ± 0.014	1.01 ± 0.053
UniProt O75808 and related entries	1.02 ± 0.024	1.01 ± 0.018	1 ± 0.039	1 ± 0.021	1.009 ± 0.0052	0.9828 ± 0.0012
SS18L1 (UniProt O75177)	1.02 ± 0.048	1.02 ± 0.029	0.967 ± 0.032	1.01 ± 0.018	0.996 ± 0.033	1.03 ± 0.041
UniProt O60879-2|C9J6U3	0.9746 ± 0.0015	0.9924 ± 0.009	0.9751 ± 0.0032	0.96 ± 0.027	0.936 ± 0.023	0.952 ± 0.028
GLRX3 (UniProt O76003)	1.04 ± 0.026	1.02 ± 0.011	0.99 ± 0.027	0.9932 ± 0.0036	0.989 ± 0.031	0.976 ± 0.055
UniProt O75143 and related entries	1.05 ± 0.037	1.01 ± 0.016	1.03 ± 0.017	0.96 ± 0.045	0.979 ± 0.057	0.974 ± 0.042
UniProt O95235 and related entries	1.05 ± 0.028	1.05 ± 0.026	1.09 ± 0.047	1.12 ± 0.044	1.12 ± 0.031	1.12 ± 0.06
BANF1 (UniProt O75531)	2.32 ± 0.38	2.76 ± 0.16	3 ± 0.25	3.73 ± 0.25	4.03 ± 0.2	4.25 ± 0.21
UniProt O95071 and related entries	0.989 ± 0.084	0.957 ± 0.065	0.95 ± 0.071	0.904 ± 0.086	0.864 ± 0.059	0.892 ± 0.088
UniProt O60869 and related entries	1.05 ± 0.021	1.1 ± 0.11	1.07 ± 0.062	1.12 ± 0.026	1.16 ± 0.055	1.19 ± 0.054
